Measured data: PubChem BioAssay AID1224826 (NIAID, 2016)

Purpose: 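Regulators of Tlr4 signalling leading to Tnf-alpha expression in macrophages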 (primary screen)
Cells: RAW264.7 G9 macrophages from mouse bearing reporters for p65 (GFP) and the Tnf promoter (mCherry)
Reagent: siRNA pool against mouse genes, 100 nM
Duration: 16 h of LPS stimulation, after 2 days of siRNA transfection
Conditions: bacterial lipopolysaccharide (Salmonella minnesota R595), 10 ng/ml
Measurement: 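Nuclear mCherry signal of the Tnf promoter reporter measured by imaging after background removal, scaled to each plate median and turned into robust z-scores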
Direction: Tnf reporter robust z-score: higher = stronger Tnf promoter reporter signal after LPS; Tnf reporter intensity: higher = stronger Tnf promoter reporter signal
Hit rule: 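Called active when robust z-score is at most -1.3, matching the median of the Tlr4 knock-down control, or over 3; control wells and wells with under 50 cells never active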
Calls: active = Tnf reporter clearly lowered or raised; inactive = no clear change in Tnf reporter
The whole screen tested about 17,000 reagents; this is a random part of them. Over the whole deposit, about 1,110 (6.6%) are marked active. 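Active means lowered or raised reporter signal; replicate intensities are raw and not normalised per plate.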 A number with no mark means an inactive call. No sequences are given here.

no.	gene	Tnf reporter robust z-score	fewer than 50 cells in well	Tnf reporter intensity, replicate 1	Tnf reporter intensity, replicate 2
1	Dpp9 (GeneID 224897)	-0.3	enough cells in well	170	79.6
2	Aplp1 (GeneID 11803)		fewer than 50 cells per well; well left out of calls	93.8	48.7
3	Gm9927 (GeneID 331513)	0.64	enough cells in well	251	196
4	Kirrel2 (GeneID 243911)	2	enough cells in well	283	246
5	Oc90 (GeneID 18256)	-1.15	enough cells in well	144	67.7
6	Tie1 (GeneID 21846)	0.6	enough cells in well	220	152
7	Trmt2a (GeneID 15547)	-0.67	enough cells in well	143	106
8	Ifna12 (GeneID 242519)	-0.37	enough cells in well	190	145
9	Pigh (GeneID 110417)	-0.69	enough cells in well	165	52
10	Mmp1a (GeneID 83995)	0.9	enough cells in well	370	246
11	Mgat5 (GeneID 107895)	0.1	enough cells in well	171	172
12	Agbl1 (GeneID 244071)	1.92	enough cells in well	331	248
13	Hsh2d (GeneID 209488)	-0.97	enough cells in well	137	94.8
14	Tnfaip8 (GeneID 106869)	0.31	enough cells in well	234	162
15	Cacng8 (GeneID 81905)	-0.78	enough cells in well	120	131
16	Adamts12 (GeneID 239337)	-0.38	enough cells in well	120	178
17	Banf1 (GeneID 23825)	-0.23	enough cells in well	183	200
18	Ppp1r1b (GeneID 19049)	-0.15	enough cells in well	195	145
19	Kpna3 (GeneID 16648)	-0.89	enough cells in well	160	111
20	Mapkapk2 (GeneID 17164)	2.37	enough cells in well	339	212
21	Fcho1 (GeneID 74015)	0.17	enough cells in well	203	184
22	Vcf1 (GeneID 28081)	-0.12	enough cells in well	126	222
23	Cldn2 (GeneID 12738)	1.03	enough cells in well	305	306
24	Lmf1 (GeneID 76483)		fewer than 50 cells per well; well left out of calls	321	65.9
25	Iffo1 (GeneID 320678)	0.21	enough cells in well	91.8	175
26	Ntpcr (GeneID 66566)		fewer than 50 cells per well; well left out of calls	43.8	0
27	Cep72 (GeneID 74470)	-0.73	enough cells in well	140	104
28	Vmn1r10 (GeneID 113858)	-1.37 (active)	enough cells in well	67	45.4
29	Ethe1 (GeneID 66071)	-0.09	enough cells in well	198	161
30	Angptl1 (GeneID 72713)	1.52	enough cells in well	253	257
31	Spc25 (GeneID 66442)	1.2	enough cells in well	206	240
32	Htr5a (GeneID 15563)	-0.28	enough cells in well	192	272
33	Sema5b (GeneID 20357)	3.4 (active)	enough cells in well	214	125
34	Tmprss15 (GeneID 19146)	-0.19	enough cells in well	229	182
35	Gtf2a1l (GeneID 71828)	-0.94	enough cells in well	158	177
36	Arrdc3 (GeneID 105171)	-0.89	enough cells in well	131	104
37	Zfp748 (GeneID 212276)		fewer than 50 cells per well; well left out of calls	105	26.3
38	Odr4 (GeneID 226499)	-0.87	enough cells in well	152	140

Reagents listed above called active:
gene	Tnf reporter robust z-score	fewer than 50 cells in well	Tnf reporter intensity, replicate 1	Tnf reporter intensity, replicate 2
Vmn1r10 (GeneID 113858)	-1.37 (active)	enough cells in well	67	45.4
Sema5b (GeneID 20357)	3.4 (active)	enough cells in well	214	125

More entries follow.
no.	gene	Tnf reporter robust z-score	fewer than 50 cells in well	Tnf reporter intensity, replicate 1	Tnf reporter intensity, replicate 2
39	Il25 (GeneID 140806)	3.15 (active)	enough cells in well	404	222
40	Eda (GeneID 13607)	-0.91	enough cells in well	165	154
41	Cenpp (GeneID 66336)	2.24	enough cells in well	369	204
42	Mga (GeneID 29808)	-0.51	enough cells in well	176	105
43	Or10d5 (GeneID 258825)	0.05	enough cells in well	150	136
44	Acsl3 (GeneID 74205)	-1.69 (active)	enough cells in well	50.4	97.4
45	Evpl (GeneID 14027)	0.44	enough cells in well	236	295
46	Fgf2 (GeneID 14173)	-1.17	enough cells in well	167	133
47	Zfp536 (GeneID 243937)	-1.16	enough cells in well	59.2	75.4
48	Cnpy1 (GeneID 269637)	1.01	enough cells in well	232	263
49	Zfp90 (GeneID 22751)	0.92	enough cells in well	172	153
50	Dsc2 (GeneID 13506)	0.98	enough cells in well	256	327
51	Or4b1 (GeneID 258987)	0.61	enough cells in well	216	146
52	Rnf31 (GeneID 268749)	1.63	enough cells in well	185	212
53	Htra1 (GeneID 56213)	0.48	enough cells in well	247	257
54	Rbl1 (GeneID 19650)	0.29	enough cells in well	331	230
55	Arpp19 (GeneID 59046)	0.82	enough cells in well	227	201
56	Apoh (GeneID 11818)	0.33	enough cells in well	179	198
57	Pbx4 (GeneID 80720)	-0.47	enough cells in well	127	38.3
58	Anxa10 (GeneID 26359)	0.95	enough cells in well	231	213
